Some of the results follow. Shown are side measurements of this screen, not its main read-out; they come without a call. Compounds called inactive in the main read-out are mostly missing here. Potencies come from curve fits of mixed quality, noted in brackets.

This is an account of results in PubChem BioAssay AID445 (National Center for Advancing Translational Sciences (NCATS), 2006).

The nature of this assay: IkB Signaling. The settings on record: ABC-DLBCL IkBa-CBG/CBR dual luciferase ratio (green luciferase fused to IkBa over red control in OCI-Ly3 lymphoma cells), 4 h; measured here: control luc red channel unless noted. The gist of the method:
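Luminescence ratio of IκBα-fused green versus native red beetle luciferase in OCI-Ly3 cells, 4 h post-doxycycline with compound; red signal alone, scaled from basal (0%) to zero light (-100%), flagged nonspecific or cytotoxic effects.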
Regarding `CSc1ccc(CCNC(=O)c2sc3ncccc3c2-n2cccc2)cc1`, the AC50 (in general, the concentration at which the activity in the assay is half-maximal) was 31.6 µM [falling, single point]. Consider `O=C(NCC(c1cccnc1)N1CCOCC1)C(=O)Nc1cccc(Cl)c1` (centres undefined), for which the concentration at half-maximal activity (AC50) is 25.1 µM [falling, single point]. On to `COC(=O)c1ccc(NC(=O)N2CCc3c([nH]c4ccccc34)C2c2ccc(C)cc2)cc1` (centres undefined), for which the concentration at half-maximal activity (AC50) was 3.98 µM [falling, partial curve].

As for `CN(C)S(=O)(=O)N(CC(=O)NCCSCc1ccc(Cl)cc1Cl)c1ccccc1`, the AC50 is 12.6 µM [falling, partial curve]. With `Cc1cc(C(=O)Nc2cccc(C(=O)O)c2)oc1C`, the AC50 was 1.58 µM [falling, full curve].

For the compound `COc1ccc(NC(=O)CN2C(=O)C(c3ccccc3)=NC23CCC(C)CC3)cc1Cl` (centres undefined), the concentration at half-maximal activity (AC50) was 20 µM [falling, single point]. Turning to `CC(C)c1ccc(NC(=O)c2cc(S(=O)(=O)NCCc3ccccc3)ccc2F)cc1`, the concentration at half-maximal activity (AC50) was 25.1 µM [falling, partial curve]. Next, `O=C1Cc2cc(S(=O)(=O)Nc3cccc(C(F)(F)F)c3)cc3c2N1CCC3`: 31.6 µM [falling, partial curve]; `COc1ccc(C(C)C)cc1S(=O)(=O)NCCc1c(C)[nH]c2c(Cl)cccc12`: 20 µM [falling, single point]; `C[C@H](NC(=O)OC(C)(C)C)c1nnc(SCc2ccc(Cl)cc2Cl)o1`: 20 µM [falling, partial curve, poor fit]. Take `CCc1ccccc1NC(=O)Cn1nc(C)c2nn(-c3ccc(Cl)cc3)c(C)c2c1=O`: the AC50 was 1.26 µM [falling, full curve, poor fit]. `Cc1nc(N2CCN(Cc3nc4ccccc4[nH]3)CC2)c2oc3ccccc3c2n1`: the concentration at half-maximal activity (AC50) was 12.6 µM [falling, partial curve].

With `CCc1ccc(S(=O)(=O)c2cn(C)c3ccc(C)cc3c2=O)cc1`, the half-maximal activity concentration (AC50) is 20 µM [falling, single point]. Next, `Cc1ccc(-n2nc(C(=O)N(C)c3ccccc3Cl)c3c4ccccc4n(C)c3c2=O)cc1`: 3.16 µM [falling, full curve]. Next, `COc1ccc(OC)c(NC(=O)CSc2ncccc2C(=O)O)c1`: 31.6 µM [falling, single point].

Turning to `CCOC(=O)c1[nH]c(C)c(CCC(=O)N2CCN(c3ccc(Cl)cc3)CC2)c1C`, the AC50 is 31.6 µM [falling, single point]. On to `O=C(O)c1ccc(Nc2ncnc3scc(-c4ccccc4)c23)cc1`, for which the half-maximal activity concentration (AC50) is 10 µM [falling, partial curve]. With `CCc1ccc2nc(N(Cc3cccnc3)C(=O)Cc3ccccc3)sc2c1`, the AC50 is 31.6 µM [falling, single point].

Regarding `COc1cc(OC)cc(C(=O)Nc2cccc(C(C)=O)c2)c1`, the AC50 was 10 µM [falling, partial curve].

`CCC(C(=O)NCc1ccccc1Cl)n1c(=O)c2cccn2c2ccccc21` (centres undefined): the AC50 was 15.8 µM [falling, partial curve]. Next, `Cc1ccc2c(c1)N(C(=O)c1ccc(F)cc1)C(C)(C)CC2(C)c1ccccc1` (centres undefined): 10 µM [falling, partial curve]. Next, `CCc1ccccc1N1C(=O)N(Cc2cc(=O)n3ccccc3n2)c2ccccc2S1(=O)=O`: 12.6 µM [falling, single point]; `O=C(NCc1ccccc1)c1c2c(nc3ccccc13)C(=O)N(C1CCCCC1)C2`: 39.8 µM [falling, single point]. Take `CCN(CC)c1ccc2nc3c(=O)n(C)c(=O)n(C)c3nc2c1`: the half-maximal activity concentration (AC50) is 20 µM [rising, partial curve]. On to `CCn1nc(C)c(CCN(C)C(=O)Nc2cc(Cl)c(OC)cc2OC)c1C`, for which the AC50 is 3.98 µM [rising, single point]. Turning to `CC(C)c1nn2c(=O)cc(COC(=O)c3cccc(NC(=O)CCc4ccccc4)c3)nc2s1`, the AC50 is 3.16 µM [falling, partial curve]. Under `O=C(CSc1oc(-c2ccc(F)cc2)nc1S(=O)(=O)c1ccccc1)c1ccc(Cl)cc1` stands 5.01 µM [falling, full curve, poor fit]. Turning to `CCN(Cc1ccccc1)C(=O)Cn1c(=O)cc(C)c2c(C)nn(-c3cccc(F)c3)c21`, the AC50 is 25.1 µM [falling, single point]. Regarding `CC(C)c1ccc(NC(=O)C2CCC(CNS(=O)(=O)c3ccc4c(c3)CCCC(=O)N4)CC2)cc1` (centres undefined), the concentration at half-maximal activity (AC50) is 15.8 µM [falling, partial curve].

For the compound `Cc1ccc(N(CC(=O)Nc2ccc(F)c(Cl)c2)S(=O)(=O)c2c(C)noc2C)cc1`, the half-maximal activity concentration (AC50) was 10 µM [falling, partial curve].

For the compound `COc1ccc(S(=O)(=O)N2CCCCC2)cc1C(=O)NC1CCS(=O)(=O)C1` (centres undefined), the AC50 is 10 µM [rising, partial curve, poor fit]. Next, `O=C(Nc1ccccc1)c1ccc(Cl)c(S(=O)(=O)Nc2ccccc2)c1`: 39.8 µM [falling, single point]; `Cc1ccc(C(=O)c2cn(Cc3ccccc3)c3c(F)cc(F)cc3c2=O)cc1`: 20 µM [falling, single point]; `Cc1cccc(NS(=O)(=O)c2ccc(C)c(C(=O)OCC(=O)Nc3cc(C)on3)c2)c1`: 31.6 µM [falling, partial curve]. Next, `COC(=O)c1ccc2c(c1)N(CC(=O)Nc1ccc(C)c(C)c1)C(=O)c1ccccc1S2`: 3.16 µM [falling, full curve]. Under `Cc1csc(NC(=O)C2CCCN(S(=O)(=O)c3ccc(Br)s3)C2)n1` (centres undefined) stands 3.16 µM [falling, full curve]; under `Oc1ccccc1-c1cc(-c2ccc3c(c2)OCCO3)n[nH]1`, 0.00316 µM [falling, full curve, poor fit]; under `Cc1ccc2nc(Nc3cccc(C(F)(F)F)c3)c3nnnn3c2c1`, 0.2 µM [falling, full curve]. Turning to `CN(C)S(=O)(=O)c1cccc(C(=O)OCC(=O)Nc2sccc2C(N)=O)c1`, the AC50 was 25.1 µM [falling, partial curve].

Turning to `O=C(Nc1cnc2ccccc2c1)C1COc2ccccc2O1` (centres undefined), the concentration at half-maximal activity (AC50) is 10 µM [falling, partial curve]. Next, `CCCCS/C(=C(/C#N)C(N)=O)c1cc2c([nH]1)CCCC2`: 25.1 µM [falling, single point]; `CCC(=O)Nc1ccc(NC(=O)c2ccccn2)cn1`: 12.6 µM [falling, partial curve].

As to `Cc1ccc(NC(=O)Cn2c(=O)n(CC(=O)NCCc3ccccc3)c(=O)c3ccccc32)cc1`, the concentration at half-maximal activity (AC50) is 31.6 µM [falling, partial curve]. Turning to `CSc1nc(NCc2ccco2)c2c3c(sc2n1)CN(C)CC3`, the concentration at half-maximal activity (AC50) is 7.94 µM [falling, partial curve]. Consider `COc1ccc(CNC(=O)CCc2c(C)nc3c4cccnc4nn3c2C)cc1`, for which the AC50 was 12.6 µM [falling, partial curve].

For the compound `COc1ccc(CC(=O)Nc2nnc3n2CCS3)cc1OC`, the AC50 is 0.126 µM [falling, single point].

Consider `COc1ccc(C)cc1-n1c(SCC(=O)NCc2ccco2)nc2c([nH]c3ccccc32)c1=O`, for which the AC50 was 25.1 µM [falling, partial curve]. Under `O=C(CN1C(=O)COc2ccc(Cl)cc21)Nc1cccc(C(=O)O)c1` stands 1.58 µM [rising, full curve, poor fit]. For the compound `O=C(Nc1ccc(Br)cc1)c1cc(S(=O)(=O)N2CCc3ccccc32)ccc1F`, the concentration at half-maximal activity (AC50) was 7.94 µM [falling, full curve]. Turning to `CCn1c(=O)c2sccc2n2c(CCCC(=O)Nc3ccc(Oc4ccccc4)cc3)nnc12`, the AC50 is 15.8 µM [falling, single point]. Regarding `COc1ccc(-c2nc(-c3ccccc3)no2)c(OC)c1`, the concentration at half-maximal activity (AC50) was 1.26 µM [falling, full curve].

As to `COc1ccc(OC)c(NC(=O)N2CCC3(CC2)Oc2ccccc2C(=O)N3Cc2ccccc2F)c1`, the concentration at half-maximal activity (AC50) is 10 µM [falling, partial curve].

Take `COc1ccc(-c2noc(CC(=O)N(C)c3cc(Cl)c(OC)cc3OC)n2)cc1`: the AC50 is 15.8 µM [falling, partial curve]. Take `CCCCN(C)C(=O)c1ccc2c(c1)NC(=O)C(CC(C)C)N2` (centres undefined): the half-maximal activity concentration (AC50) was 3.16 µM [falling, partial curve]. Under `Cc1ccc(NC(=O)c2nc(S(C)(=O)=O)ncc2N(Cc2ccco2)Cc2ccco2)cc1` stands 25.1 µM [falling, single point]; under `Cc1ccc(OCCSc2nc3ccccc3n2CCC(=O)O)cc1`, 39.8 µM [falling, single point]; under `Cc1ccc(-c2nc(-c3cccs3)c(-c3cccs3)[nH]2)cc1`, 6.31 µM [falling, partial curve]. For `Cc1cc(C)cc(OCC(=O)N(Cc2ccco2)Cc2ccccc2Cl)c1`, the concentration at half-maximal activity (AC50) is 25.1 µM [falling, partial curve]. Turning to `CC(C)NC(=O)c1cc(C(=O)c2cc(Cl)ccc2O)coc1=N`, the half-maximal activity concentration (AC50) is 5.01 µM [falling, partial curve]. For the compound `CCCN(CCC)c1cc(C)nc2nc(-c3ccc(C(C)(C)C)cc3)nn12`, the AC50 was 0.2 µM [rising, full curve].

Turning to `CCOC(=O)c1ccc(NC(=O)c2cc(=O)c3ccc(C)c(C)c3o2)cc1`, the AC50 is 15.8 µM [rising, partial curve]. Next, `O=C(COc1ccc(Br)cc1CO)Nc1ccccc1F`: 7.94 µM [falling, partial curve]. For `CC(=O)N1CCc2cc(Br)cc(S(=O)(=O)CCC(=O)N3CCN(c4cccc(C)c4C)CC3)c21`, the half-maximal activity concentration (AC50) is 3.16 µM [falling, partial curve].

Turning to `COc1ccc(C(=O)N2CCN(C3CCC(c4ccccc4)CC3)CC2)cc1OC` (centres undefined), the AC50 is 39.8 µM [falling, single point].
